Laboratory results as given in article PMC7914341.

Biological target: T1, Flag-tagged human PRLR S1a isoform (PRLR-SF) (human) (UniProt P16471)
T1 sequence: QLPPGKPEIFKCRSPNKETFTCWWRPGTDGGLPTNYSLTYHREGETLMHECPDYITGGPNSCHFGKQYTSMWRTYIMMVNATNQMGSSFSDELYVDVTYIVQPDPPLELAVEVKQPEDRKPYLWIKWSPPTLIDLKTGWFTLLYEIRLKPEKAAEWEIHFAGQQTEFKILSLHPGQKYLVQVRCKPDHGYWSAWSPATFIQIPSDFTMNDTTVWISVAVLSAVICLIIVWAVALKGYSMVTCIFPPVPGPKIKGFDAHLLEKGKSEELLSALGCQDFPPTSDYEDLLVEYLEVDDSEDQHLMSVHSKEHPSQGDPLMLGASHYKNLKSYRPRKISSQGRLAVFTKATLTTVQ
Assay: co-IP; AsPC-1 cells co-transfected with HA-tagged NEK9 and Flag-tagged PRLR; lysates incubated with anti-HA or anti-Flag antibody or control IgG coupled beads overnight at 4 C; western blotting

HA-tagged human NEK9 (enzyme)
binding: binds

These are yes or no findings as the source states them, for the method shown. Binding seen in cells or lysates may run through a third protein. Binding can be weak; no strength is given. Where a sequence is shown, tags or fusion partners need not be part of it.
